Data set [1] addresses hnRNPK (endogenous, PC3 lysate) (UniProt P61978). In words: pull-down. The settings on record: pull-down: 10 mM Tris-Cl pH 7.5, 20 mM KCl, 1.5 mM MgCl2, 5 mM DTT, 0.5 mM EDTA, 5% glycerol, 0.5% NP-40, 4 C; protein in an extract; label: 3' biotin.
The target of data set [2] is hnRNPK (6xHis-GFP fusion) (Homo sapiens) (UniProt P61978). In words: MST. The settings on record: higher Kd than motif_mimic, value only in figure; MST: 50 mM HEPES, 0.3 M KCl, pH 7.4, 40 nM RNA, protein dilution from 150 uM, temperature not stated; recombinant protein; protein details: N-terminal 6xHis-GFP, TEV site; label: 5' 6-FAM.
The target in the next data set is BSA (UniProt P02769). In words: MST. The settings on record: no dose response, negative control; MST: 50 mM HEPES, 0.3 M KCl, pH 7.4, 40 nM RNA, protein dilution from 150 uM, temperature not stated; commercial protein; label: 5' 6-FAM.

For some of these results: No signal at the amounts used counts as a negative. For some of these results: Construct, isoform or probe ends are uncertain for at least one entry. For some of these results: The comparison behind a weaker result is the experiment's own reference, which may not be listed here. For some of these results: Results from cells or extracts need not show a direct contact.

For the sequence “AAUUGCACGGUAUCCAUCUGUA [biotin-miR-363-3p]”, in data set [1], the binding result is “no binding”.
“UCAACGCACUACAGAACUUUGU [motif_mutated (motif_mutant)]”: the binding result in data set [2] is “binds more weakly”.
For the sequence “UCAGUGCACUACAGAACUUUGU [biotin-miR-148a-3p]”, the binding result in data set [1] is given as “binds”.
With “UCAGUGCACUACAGAACUUUGU [motif_mimic (miR-148a-3p)]”, the binding result with BSA is given as “no binding”.
Take “UCGAAUGCCUACAGAACUUUGU [motif_scramble (motif_scrambled)]”: the binding result in data set [2] is listed as “binds more weakly”.
Take “UGUAAACAUCCUCGACUGGAAG [biotin-miR-30a-5p]”: the binding result in data set [1] was “binds”.
Take “UGUAAUCACGACAUGACCUUUG [biotin-scrambled miRNA]”: the binding result in data set [1] is “no binding”.

The values are drawn from article PMC8031663.
